Measured values published in the supplement of paper PMC11006884.
The entries are a selection whose mix differs from that of the whole data set.

By UniProt entry, the sequences of proteins in these tests, tags left out. Where a name states a change or a piece, a line headed by the entry shows the natural chain unless it says otherwise.
UniProt P61106, whole entry, looked up: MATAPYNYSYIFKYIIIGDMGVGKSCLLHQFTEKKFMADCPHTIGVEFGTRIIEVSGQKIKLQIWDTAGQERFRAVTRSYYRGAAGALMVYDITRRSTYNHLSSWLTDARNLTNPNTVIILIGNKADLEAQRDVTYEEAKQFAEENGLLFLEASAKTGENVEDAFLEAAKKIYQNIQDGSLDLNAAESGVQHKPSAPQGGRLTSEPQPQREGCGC
UniProt P51665: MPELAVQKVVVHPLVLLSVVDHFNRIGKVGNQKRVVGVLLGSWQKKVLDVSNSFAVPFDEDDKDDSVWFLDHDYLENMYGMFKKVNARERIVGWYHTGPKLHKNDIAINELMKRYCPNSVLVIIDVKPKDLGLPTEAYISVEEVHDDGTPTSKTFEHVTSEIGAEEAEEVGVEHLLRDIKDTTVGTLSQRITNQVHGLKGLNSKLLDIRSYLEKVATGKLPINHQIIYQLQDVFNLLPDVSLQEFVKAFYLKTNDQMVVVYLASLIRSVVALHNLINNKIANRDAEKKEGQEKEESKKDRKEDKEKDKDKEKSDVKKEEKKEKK
UniProt P53701: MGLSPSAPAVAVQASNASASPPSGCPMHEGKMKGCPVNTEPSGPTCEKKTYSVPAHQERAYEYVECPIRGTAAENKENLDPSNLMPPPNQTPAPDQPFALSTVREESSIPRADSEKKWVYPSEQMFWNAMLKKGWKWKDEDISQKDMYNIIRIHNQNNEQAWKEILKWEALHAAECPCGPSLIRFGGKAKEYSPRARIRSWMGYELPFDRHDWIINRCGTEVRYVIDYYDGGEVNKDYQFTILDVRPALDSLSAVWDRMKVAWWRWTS
UniProt P55060: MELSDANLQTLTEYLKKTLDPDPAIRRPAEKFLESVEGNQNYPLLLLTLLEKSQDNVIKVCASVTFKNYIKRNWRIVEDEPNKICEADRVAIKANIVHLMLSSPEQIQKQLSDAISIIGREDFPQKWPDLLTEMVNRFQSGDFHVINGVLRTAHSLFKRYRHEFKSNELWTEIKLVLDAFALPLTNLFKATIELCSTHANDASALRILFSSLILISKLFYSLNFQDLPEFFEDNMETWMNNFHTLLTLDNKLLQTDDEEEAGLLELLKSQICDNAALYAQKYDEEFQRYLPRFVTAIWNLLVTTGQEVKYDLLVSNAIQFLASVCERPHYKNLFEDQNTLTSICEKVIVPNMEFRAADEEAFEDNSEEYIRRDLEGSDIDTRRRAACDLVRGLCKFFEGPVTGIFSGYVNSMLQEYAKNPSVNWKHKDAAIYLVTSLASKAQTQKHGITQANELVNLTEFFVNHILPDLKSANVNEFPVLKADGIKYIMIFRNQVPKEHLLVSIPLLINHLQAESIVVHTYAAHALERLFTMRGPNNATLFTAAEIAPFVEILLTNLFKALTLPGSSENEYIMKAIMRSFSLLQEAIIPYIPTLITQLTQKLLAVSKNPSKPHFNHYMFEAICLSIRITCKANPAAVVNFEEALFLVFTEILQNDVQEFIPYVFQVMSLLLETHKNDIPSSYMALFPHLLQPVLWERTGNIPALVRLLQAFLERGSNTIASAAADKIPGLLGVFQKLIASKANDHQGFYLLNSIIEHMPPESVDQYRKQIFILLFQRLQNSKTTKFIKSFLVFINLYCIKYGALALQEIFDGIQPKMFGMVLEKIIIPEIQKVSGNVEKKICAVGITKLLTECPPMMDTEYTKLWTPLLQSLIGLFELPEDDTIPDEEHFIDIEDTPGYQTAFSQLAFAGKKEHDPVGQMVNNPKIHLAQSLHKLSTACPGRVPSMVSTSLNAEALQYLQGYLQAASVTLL
UniProt P57678: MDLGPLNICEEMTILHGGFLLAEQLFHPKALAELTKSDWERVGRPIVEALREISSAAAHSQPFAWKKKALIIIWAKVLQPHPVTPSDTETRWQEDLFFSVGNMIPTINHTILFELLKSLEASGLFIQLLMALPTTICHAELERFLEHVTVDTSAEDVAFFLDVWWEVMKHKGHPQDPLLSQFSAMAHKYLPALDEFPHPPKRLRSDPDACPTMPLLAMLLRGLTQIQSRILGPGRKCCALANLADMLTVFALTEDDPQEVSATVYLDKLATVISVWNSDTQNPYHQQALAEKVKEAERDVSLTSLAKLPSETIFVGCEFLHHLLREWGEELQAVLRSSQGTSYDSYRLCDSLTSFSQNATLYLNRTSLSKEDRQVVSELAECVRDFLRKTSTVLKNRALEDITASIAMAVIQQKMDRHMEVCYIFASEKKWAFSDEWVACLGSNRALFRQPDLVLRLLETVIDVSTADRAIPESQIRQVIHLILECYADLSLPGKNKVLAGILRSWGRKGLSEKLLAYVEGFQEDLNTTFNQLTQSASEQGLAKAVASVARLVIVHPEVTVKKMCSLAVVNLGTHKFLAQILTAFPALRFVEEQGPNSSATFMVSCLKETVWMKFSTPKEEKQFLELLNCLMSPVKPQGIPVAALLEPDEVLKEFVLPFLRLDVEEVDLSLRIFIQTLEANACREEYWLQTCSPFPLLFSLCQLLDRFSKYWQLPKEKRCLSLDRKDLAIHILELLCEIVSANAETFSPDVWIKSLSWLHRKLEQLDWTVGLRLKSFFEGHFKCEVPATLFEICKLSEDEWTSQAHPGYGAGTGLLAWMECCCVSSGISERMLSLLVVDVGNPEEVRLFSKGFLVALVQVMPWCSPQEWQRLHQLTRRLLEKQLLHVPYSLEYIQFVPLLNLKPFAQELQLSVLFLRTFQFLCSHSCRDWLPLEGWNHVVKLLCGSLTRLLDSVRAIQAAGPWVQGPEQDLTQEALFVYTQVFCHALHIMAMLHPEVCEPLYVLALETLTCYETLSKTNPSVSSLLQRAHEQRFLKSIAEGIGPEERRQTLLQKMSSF
UniProt P61163, whole entry, looked up: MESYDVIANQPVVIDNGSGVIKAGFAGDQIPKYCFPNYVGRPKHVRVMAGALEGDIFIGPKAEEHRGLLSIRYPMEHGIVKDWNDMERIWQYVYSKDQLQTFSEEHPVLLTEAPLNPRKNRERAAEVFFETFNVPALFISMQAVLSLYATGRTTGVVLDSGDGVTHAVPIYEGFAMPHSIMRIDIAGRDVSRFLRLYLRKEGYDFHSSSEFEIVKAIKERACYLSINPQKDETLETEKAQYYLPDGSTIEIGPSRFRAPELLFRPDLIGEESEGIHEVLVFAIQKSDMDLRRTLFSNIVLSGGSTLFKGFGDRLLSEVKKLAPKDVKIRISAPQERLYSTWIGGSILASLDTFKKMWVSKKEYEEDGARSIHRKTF
UniProt P61011: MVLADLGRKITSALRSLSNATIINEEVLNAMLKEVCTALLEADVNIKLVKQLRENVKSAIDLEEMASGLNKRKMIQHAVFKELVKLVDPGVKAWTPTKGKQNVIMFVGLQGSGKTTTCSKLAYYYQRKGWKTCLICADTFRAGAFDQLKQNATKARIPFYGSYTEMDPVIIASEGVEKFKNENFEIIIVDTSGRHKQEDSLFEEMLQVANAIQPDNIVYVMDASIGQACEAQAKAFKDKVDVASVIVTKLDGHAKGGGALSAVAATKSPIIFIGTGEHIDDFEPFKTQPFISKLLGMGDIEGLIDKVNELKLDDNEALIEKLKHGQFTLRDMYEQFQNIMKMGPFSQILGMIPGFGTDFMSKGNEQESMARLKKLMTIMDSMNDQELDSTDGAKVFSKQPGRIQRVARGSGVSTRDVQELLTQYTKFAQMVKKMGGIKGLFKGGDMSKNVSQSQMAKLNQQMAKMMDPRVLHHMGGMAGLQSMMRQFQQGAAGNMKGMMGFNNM
UniProt P55072, whole entry, looked up: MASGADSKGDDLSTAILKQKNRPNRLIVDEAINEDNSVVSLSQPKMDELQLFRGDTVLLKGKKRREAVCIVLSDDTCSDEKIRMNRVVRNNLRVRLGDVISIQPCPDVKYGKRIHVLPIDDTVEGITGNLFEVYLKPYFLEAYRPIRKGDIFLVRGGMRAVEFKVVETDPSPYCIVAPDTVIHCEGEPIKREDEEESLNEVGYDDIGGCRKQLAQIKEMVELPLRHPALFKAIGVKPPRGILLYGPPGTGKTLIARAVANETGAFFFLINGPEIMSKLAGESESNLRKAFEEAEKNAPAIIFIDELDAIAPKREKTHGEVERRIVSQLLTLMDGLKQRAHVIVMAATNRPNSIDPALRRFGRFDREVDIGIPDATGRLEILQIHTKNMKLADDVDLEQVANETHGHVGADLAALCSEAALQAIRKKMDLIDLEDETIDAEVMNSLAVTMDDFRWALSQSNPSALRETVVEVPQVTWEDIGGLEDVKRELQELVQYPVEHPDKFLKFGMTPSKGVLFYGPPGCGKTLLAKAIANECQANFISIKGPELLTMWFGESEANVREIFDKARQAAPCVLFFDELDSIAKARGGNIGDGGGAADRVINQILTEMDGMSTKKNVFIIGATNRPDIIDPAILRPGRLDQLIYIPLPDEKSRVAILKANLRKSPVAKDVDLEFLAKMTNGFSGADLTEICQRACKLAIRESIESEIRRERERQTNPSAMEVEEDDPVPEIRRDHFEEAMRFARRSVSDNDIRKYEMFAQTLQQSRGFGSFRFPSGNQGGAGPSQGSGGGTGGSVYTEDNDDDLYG
UniProt P52597: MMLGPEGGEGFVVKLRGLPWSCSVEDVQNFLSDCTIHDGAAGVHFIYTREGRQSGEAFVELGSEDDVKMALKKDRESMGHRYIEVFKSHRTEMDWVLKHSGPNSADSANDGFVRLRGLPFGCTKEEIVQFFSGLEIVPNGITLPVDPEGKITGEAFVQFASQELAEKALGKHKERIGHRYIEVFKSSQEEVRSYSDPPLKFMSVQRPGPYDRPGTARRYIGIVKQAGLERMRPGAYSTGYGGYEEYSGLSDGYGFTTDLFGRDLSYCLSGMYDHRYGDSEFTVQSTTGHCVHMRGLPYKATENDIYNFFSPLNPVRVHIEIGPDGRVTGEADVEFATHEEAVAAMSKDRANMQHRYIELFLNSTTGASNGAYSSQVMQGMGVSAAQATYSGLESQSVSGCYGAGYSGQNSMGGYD
UniProt P54198, whole entry, looked up: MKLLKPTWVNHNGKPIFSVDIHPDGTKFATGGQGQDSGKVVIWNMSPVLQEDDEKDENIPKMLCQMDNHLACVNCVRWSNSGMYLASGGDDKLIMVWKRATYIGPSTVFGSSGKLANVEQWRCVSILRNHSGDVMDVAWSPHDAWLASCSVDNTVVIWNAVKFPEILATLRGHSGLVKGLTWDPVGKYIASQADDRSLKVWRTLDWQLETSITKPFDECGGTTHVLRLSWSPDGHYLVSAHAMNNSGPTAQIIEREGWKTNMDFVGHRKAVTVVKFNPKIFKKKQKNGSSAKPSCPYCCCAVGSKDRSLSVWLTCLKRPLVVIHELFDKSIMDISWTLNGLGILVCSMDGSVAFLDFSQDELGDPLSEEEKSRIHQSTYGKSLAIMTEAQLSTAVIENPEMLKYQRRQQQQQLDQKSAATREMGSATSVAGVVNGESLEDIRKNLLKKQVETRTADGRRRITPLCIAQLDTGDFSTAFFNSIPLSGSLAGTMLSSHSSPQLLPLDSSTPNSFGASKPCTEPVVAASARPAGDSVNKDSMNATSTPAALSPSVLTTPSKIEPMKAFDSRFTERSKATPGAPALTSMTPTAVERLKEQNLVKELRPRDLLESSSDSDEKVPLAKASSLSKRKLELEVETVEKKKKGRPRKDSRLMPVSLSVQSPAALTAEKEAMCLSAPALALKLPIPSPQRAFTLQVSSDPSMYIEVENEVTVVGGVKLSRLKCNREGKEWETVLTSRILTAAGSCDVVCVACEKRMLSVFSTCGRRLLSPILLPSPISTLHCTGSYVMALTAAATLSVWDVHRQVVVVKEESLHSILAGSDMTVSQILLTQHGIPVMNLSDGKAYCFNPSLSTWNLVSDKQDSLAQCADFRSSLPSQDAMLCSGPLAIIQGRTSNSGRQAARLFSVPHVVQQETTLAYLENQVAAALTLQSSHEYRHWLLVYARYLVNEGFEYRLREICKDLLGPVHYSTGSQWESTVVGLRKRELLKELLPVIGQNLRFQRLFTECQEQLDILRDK
UniProt P53350, whole entry, looked up: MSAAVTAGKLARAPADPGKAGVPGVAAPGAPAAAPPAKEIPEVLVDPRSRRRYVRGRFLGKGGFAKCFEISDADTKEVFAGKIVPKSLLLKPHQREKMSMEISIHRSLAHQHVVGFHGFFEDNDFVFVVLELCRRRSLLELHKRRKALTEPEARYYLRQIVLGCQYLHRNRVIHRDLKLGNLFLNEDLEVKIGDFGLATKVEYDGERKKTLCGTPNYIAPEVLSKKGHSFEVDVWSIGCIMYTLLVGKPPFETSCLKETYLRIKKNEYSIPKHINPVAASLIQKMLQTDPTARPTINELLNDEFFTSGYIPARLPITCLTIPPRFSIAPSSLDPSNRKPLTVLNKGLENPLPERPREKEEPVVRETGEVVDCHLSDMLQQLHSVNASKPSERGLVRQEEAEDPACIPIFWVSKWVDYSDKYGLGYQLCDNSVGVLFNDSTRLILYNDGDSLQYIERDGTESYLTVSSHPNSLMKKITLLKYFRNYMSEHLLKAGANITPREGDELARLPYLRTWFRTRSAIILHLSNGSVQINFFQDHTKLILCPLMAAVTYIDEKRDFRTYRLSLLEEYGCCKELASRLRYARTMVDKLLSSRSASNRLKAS

Compound: COC(=O)C#Cc1ccccc1 [methyl 3-phenylpropiolate]
Assay: log2 ratio of iodoacetamide-alkyne labeling of the cysteine site, DMSO over compound (competition); higher = stronger covalent engagement of the cysteine by the compound, active = 1 or more
Conditions: 500 µM; treatment time 1 h; system: HEK293T cell lysate
Outline: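 Reporter intensities give each cysteine's log2 competition ratio as the mean of control channels over the mean of compound channels. The samples were HEK293T lysate (2 mg/mL) given vehicle or electrophile (500 µM, 1 h, ambient temperature), then iodoacetamide alkyne (1 h), followed by click coupling to sCIP-TMT reagents, pooling, trypsin digestion overnight at 37 °C, streptavidin enrichment, acid elution, Orbitrap Eclipse LC-MS/MS with FAIMS and FragPipe quantification. Duplicate channels and three replicates were run, and cysteines quantified in only one replicate were discarded.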

log2 ratio of iodoacetamide-alkyne labeling, inactive:
UniProt P61106_C40 0.513
HNRNPM C114 (UniProt P52272) -0.0182
PSMD7 C116 (UniProt P51665) 0.00567
HCCS C178 (UniProt P53701) 0.0323
CSE1L C85 (UniProt P55060) 0.0448
CTBP2 C140 (UniProt P56545) -0.121
GEMIN4 C9 (UniProt P57678) 0.488
UniProt P61163_C222 0.293
SRP54 C136 (UniProt P61011) 0.0185
UniProt P55072_C691 0.0155
HNRNPF C290 (UniProt P52597) 0.0362
CSE1L C272 (UniProt P55060) 0.133
HIRA C1007 (UniProt P54198) 0.379
PLK1 C405 (UniProt P53350) 0.726

Quoted from the results shown (two entries):
log2 ratio of iodoacetamide-alkyne labeling, inactive:
HNRNPF C290 (UniProt P52597) 0.0362
CSE1L C272 (UniProt P55060) 0.133
